Laboratory results published in article PMC5940305, “The Rab11-binding protein RELCH/KIAA1468 controls intracellular cholesterol distribution” (The Journal of Cell Biology, 2018).

Amino acid sequences for entries named in this document (tags omitted). A change or cut given only in a name is not applied to a line headed by its entry.
UniProt Q15907: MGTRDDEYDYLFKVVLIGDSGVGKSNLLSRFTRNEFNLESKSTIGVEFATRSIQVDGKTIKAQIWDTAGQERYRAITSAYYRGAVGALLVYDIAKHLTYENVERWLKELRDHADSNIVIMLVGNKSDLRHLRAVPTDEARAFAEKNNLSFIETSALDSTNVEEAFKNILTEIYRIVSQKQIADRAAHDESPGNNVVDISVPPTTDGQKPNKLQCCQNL

Target: Gal4BD-Rab11b, GTP-locked (UniProt Q15907)
Test: two-hybrid; S. cerevisiae PJ69-4A, Gal4AD (pACT2) RELCH constructs and Gal4BD (pFBT9) GTP-locked Rabs; growth on QDO plates, 3 d at 30°C

B1: Gal4AD-RELCH, full length (protein, UniProt Q148V7 1-1216)
chain: MAAMAPGGGGSGSGVNPFLSDSDEDDDEVAATEDRRAGLRLGAGVGLDPGSAGSLSPQDPMALGSSARPGLAVEMSAAPAALGGSGETPARLSIDAIAAQLLRDQYLLTALELHTELLESGRELPRLRDYFSNPGNFERQSGTPPGMGAPGIPGASIVGGAGGREPSTTSGGGQLNRAGSISTLDSLDFARYSDDGNRETDERVAVLEFELRKAKETIQALRANLTKAAEHEVPLQERKNYKSSPEIQEPIKPLEKRALNFLVNEFLLKNNYKLTSITFSDENDDQDFELWDDVGLNIPKPPDLLQLYRDFGNHQVTGKDLVDVASGVDEDELEALTPILGNVPPTLDTPLPIENTLLVQKLEDKISLLNNEKWSLMEQIRRLESEMDILKAEHFATPAVGDSVQPSLVWSSQKDSEDNRQSPAVNSSDQEKTKDVHLEIPDAADSFIPKENSSGSFPRKEREELPPSSVSNKTTLHFDQPNRKLSPAFHQALLSFCRMSADSRLGSEVSRIADSEKSVMLMLGRCLPHIVPNVLLAKREELIPLILCTACLHPEPKERDQLLHILFNLIKRPDDEQRQMILTGCVAFARHVGPTRVEAELLPQCWEQINHKYPERRLLVAESCGALAPYLPKEIRSSLVLSMLQQMLMEDKADLVREAVIKSLGIIMGYIDDPDKYQQGFELLLSALGDPSERVVSATHQVFLPAYAAWTTELGNLQSHLIPTLLNKIEKLLREGEHGLDEHKLHMYLSALQSLIPSLFALVLQNAPFSSKAKLHGEVPHIEVTRFPRPMSPLQDVSTIIGSREQLAVLLQLYDYQLEHEGTTGWESLLWVVNQLLPQLIEIVGKINVTSTACVHEFSRFFWRLCRTFGKIFTNTKVKPQFQEILRLSEENIDSSAGNGVLTKATVPIYATGVLTCYIQEEDRKLLVGFLEDVMTLLSLSHAPLDSLKASFVELGANPAYHELLLTVLWYGVVHTSALVRCTAARMFELLVKGVNETLVAQRVVPALITLSSDPEISVRIATIPAFGTIMETVIQRELLERVKMQLASFLEDPQYQDQHSLHTEVIRTFGRVGPNAEPRFRDEFVIPHLHKLALVNNLQIVDSKKLDIATHLFEAYSALSCCFISEDLMVNHFLPGLRCLRTDMEHLSPEHEVILSSMIKECEQKVENKTVQEPPGSMSIAASLVSEDTKTKFLNKMGQLTTSGAMLANVFQRKK
With B1 the binding was “binds”.

Results are given in words; binding and its absence hold for the method and conditions named. Binding calls can cover weak binding; strength is not graded here.
